Measurements as given in PMC8298264, “Function of cofactor Akirin2 in the regulation of gene expression in model human neutrophil-like HL60 cells” (Bioscience Reports, 2021).

Test system: human HL60 cells
Assay: SWATH-MS proteomics, differential protein representation, akirin2 KO vs WT HL60 cells
Format: cell-based
Settings: sheet "Under-represented in KO"
Method: Total proteins were extracted from WT and akirin2 KO HL60 cells using the AllPrep DNA/RNA/Protein Mini Kit (Qiagen) and protein concentration was determined using the BCA Protein Assay with BSA (Sigma–Aldrich) as standard. Protein extracts (150 µg per sample, n=3 biological replicates) from each WT and KO cells were trypsin digested using the FASP Protein Digestion Kit (Expedeon Ltd., Abcam, Cambridge, U.K.) and sequencing grade trypsin (Promega, Madison, WI, U.S.A.) following manufacturer’s recommendations. The resulting peptides were finally desalted on to OMIX Pipette tips C18 (Agilent Technologies, Santa Clara, CA, U.S.A.), dried down and stored at −20 °C until mass spectrometry analysis. […] Three micrograms of each protein digest from the three biological replicates of WT and akirin2 KO HL60 cells were used for the generation of the reference spectral ion library as part of the SWATH-MS analysis.
Peptides were eluted in a 120-min gradient from 5 to 30% solvent B in solvent A followed by 15-min gradient from 30 to 60% solvent B in solvent A (solvent A: 0.1% formic acid in water, solvent B: 0.1% formic acid in acetonitrile) and directly injected into the mass spectrometer for analysis. For IDA experiments, the mass spectrometer was set to scanning full spectra (350–1400 m/z) using 250 ms accumulation time per spectrum, followed by up to 50 MS/MS scans (100–1500 m/z). Candidate ions with a charge state between +2 and +5 counts per second above a minimum threshold of 100 were isolated for fragmentation. One MS/MS spectrum was collected for 100 ms, before adding those precursor ions to the exclusion list for 15 s (mass spectrometer operated by Analyst TF 1.6, AB Sciex). Dynamic background subtraction was turned off. MS/MS analyses were recorded in high-sensitivity mode with rolling collision energy on and a collision energy spread of 5. For SWATH quantitative analysis, six independent samples (three replicates from WT and akirin2 KO HL60 cells, 5 µg each) were subjected to the cyclic DIA of mass spectra using the SWATH variable windows calculator (V 1.0, AB Sciex) and the SWATH acquisition method editor (AB Sciex), similar to established methods. […] For these experiments, a 50-ms survey scan (350–1400 m/z) was acquired at the beginning of each cycle, and SWATH–MS/MS spectra were collected from 100–1500 m/z for 70 ms at high-sensitivity mode, resulting in a cycle time of 3.6 s. Collision energy for each window was determined according to the calculation for a charge +2 ion-centered upon the window with a collision energy spread of 15. To create a spectral library of all the detectable peptides in the samples, the IDA MS raw files were combined and subjected to database search in unison using ProteinPilot software v. 5.0.1 (AB Sciex) with the Paragon algorithm. […] The detected protein threshold was set at 0.05. An independent false discovery rate (FDR) analysis, using the target–decoy approach provided by Protein Pilot (AB Sciex; https://sciex.com/products/software/proteinpilot-software), was used to assess the quality of identifications. Positive identifications were considered when identified proteins reached 1% of global FDR. […] Global normalization was performed according to the Total Area Sums (TAS) of all detected proteins in the samples. […] Heatmaps were prepared using the Heatmapper (http://www.heatmapper.ca/expression/) with average linkage and Euclidean distance measurement method.

[1] = akirin2 KO vs WT HL60 cells, SWATH-MS

Substance | Fold Change [1] | Log (Fold Change) [1] | Fold Change (KO vs WT HL60 cells) | Log (Fold Change) (KO vs WT HL60 cells)
sp¦A6NHR9¦SMHD1_HUMAN | 0.8475 | -0.07187 |  | 
sp¦O43776¦SYNC_HUMAN | 0.8303 | -0.08076 |  | 
sp¦P06576¦ATPB_HUMAN |  |  | 0.8606 | -0.0652
sp¦P06748¦NPM_HUMAN | 0.8302 | -0.08081 |  | 
sp¦P07814¦SYEP_HUMAN | 0.7964 | -0.09889 |  | 
sp¦P14625¦ENPL_HUMAN |  |  | 0.9081 | -0.04186
sp¦P31153¦METK2_HUMAN | 0.8314 | -0.08017 |  | 
sp¦P46063¦RECQ1_HUMAN | 0.8057 | -0.09384 |  | 
sp¦P46940¦IQGA1_HUMAN |  |  | 0.9054 | -0.04316
sp¦P49792¦RBP2_HUMAN |  |  | 0.8796 | -0.05573
sp¦P51149¦RAB7A_HUMAN |  |  | 0.8579 | -0.06658
sp¦P61586¦RHOA_HUMAN | 0.8413 | -0.07506 |  | 
sp¦Q5JVF3¦PCID2_HUMAN | 0.8079 | -0.09263 |  | 
sp¦Q08J23¦NSUN2_HUMAN | 0.8062 | -0.09355 |  | 
sp¦Q8TEM1¦PO210_HUMAN |  |  | 0.8773 | -0.05687
sp¦Q9BYG3¦MK67I_HUMAN |  |  | 0.8627 | -0.06412
sp¦Q9NR30¦DDX21_HUMAN | 0.8521 | -0.06949 |  | 
sp¦Q9NUJ1¦ABHDA_HUMAN | 0.8154 | -0.08865 |  | 
sp¦Q9UBE0¦SAE1_HUMAN | 0.8421 | -0.07464 |  | 
sp¦Q9ULC4¦MCTS1_HUMAN | 0.7938 | -0.1003 |  | 
sp¦Q9UNM6¦PSD13_HUMAN |  |  | 0.8739 | -0.05855
sp¦Q9Y5K5¦UCHL5_HUMAN | 0.8299 | -0.08098 |  | 
sp¦Q969U7¦PSMG2_HUMAN |  |  | 0.9336 | -0.02985
sp¦Q01813¦PFKAP_HUMAN | 0.8149 | -0.08889 |  | 
sp¦Q08211¦DHX9_HUMAN |  |  | 0.8851 | -0.05303
sp¦Q14566¦MCM6_HUMAN | 0.8281 | -0.08192 |  | 
